From the supplement of paper PMC4604168 (melanoma cell lines)
The other results are listed elsewhere or left out. Many values rest on one well or one pass, so single values are uncertain.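 The apoptosis fraction was the count of cleaved-PARP antibody-stained nuclei relative to all DNA-stained nuclei, imaged in 1,536-well plates. Screening doses were set so most cells survived, and baseline and induced cleaved-PARP levels vary greatly across cell lines.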

Experiments:
Experiment in all cases: cleaved PARP positive nuclei fraction relative to DMSO control; melanoma cells; higher = more apoptosis
Settings in all cases: library dose: low library concentration; 72 h
A101D = system: A101D
A2058 = system: A2058
A375 = system: A375
C32 = system: C32
CBRC008 = system: CBRC008 (line from a melanoma biopsy)
CBRC014 = system: CBRC014 (line from a melanoma biopsy)
CBRC016 = system: CBRC016 (line from a melanoma biopsy)
CBRC017 = system: CBRC017 (line from a melanoma biopsy)
CBRC013 = system: CBRC013 (line from a melanoma biopsy)

SMILES	cleaved PARP positive nuclei fraction (A101D) [%]	cleaved PARP positive nuclei fraction (A2058) [%]	cleaved PARP positive nuclei fraction (A375) [%]	cleaved PARP positive nuclei fraction (C32) [%]	cleaved PARP positive nuclei fraction (CBRC008) [%]	cleaved PARP positive nuclei fraction (CBRC014) [%]	cleaved PARP positive nuclei fraction (CBRC016) [%]	cleaved PARP positive nuclei fraction (CBRC017) [%]	cleaved PARP positive nuclei fraction (CBRC013) [%]
CC(=O)O[C@@]12CO[C@@H]1C[C@H](O)[C@@]1(C)C(=O)[C@H](O)C3=C(C)[C@@H](OC(=O)[C@H](O)[C@@H](NC(=O)OC(C)(C)C)c4ccccc4)C[C@@](O)([C@@H](OC(=O)c4ccccc4)[C@H]21)C3(C)C [Docetaxel] + C[As](C)SC[C@H](NC(=O)CC[C@H](N)C(=O)O)C(=O)NCC(=O)O [Darinaparsin] (first compound 0.0001 µM, partner dose 0.4 µM)	152	4360	4500	381	260	188	298	160	–
Cn1cc(C2=C(c3cn(C4CCN(Cc5ccccn5)CC4)c4ccccc34)C(=O)NC2=O)c2ccccc21 [Enzastaurin] + C[C@@H](Oc1cc(-c2cnn(C3CCNCC3)c2)cnc1N)c1c(Cl)ccc(F)c1Cl [Crizotinib] (first compound 0.8 µM, partner dose 0.2 µM)	274	98.9	110	72.1	147	90.8	125	125	–
C[As](C)SC[C@H](NC(=O)CC[C@H](N)C(=O)O)C(=O)NCC(=O)O [Darinaparsin] + Cn1cc(/C=C2\C(=O)Nc3cccnc32)c2ccccc21 [GW441756] (first compound 0.4 µM, partner dose 0.4 µM)	111	91.2	191	24.6	–	91.7	29.9	95.4	370
